PubChem BioAssay AID504808, Drosophila RNAi Screening Center – 2011

Assay: 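Genes whose loss lifts activity of an E2F-responsive reporter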 (primary screen)
Cell system: Drosophila S2 cells
Reagents: long dsRNA against Drosophila genes
Detection: 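Firefly luciferase driven by E2F sites, normalised to Renilla luciferase on the same minimal promoter, measured by plate reader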
Direction: E2F firefly: higher = more E2F reporter activity; Renilla normaliser: higher = more normaliser reporter signal
Hit rule: 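Called active if the normalised E2F reporter went up by over 50%; the cutoff is arbitrary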
In all, the deposit lists about 21,000 reagents; shown is an unselected part of those with a known target gene and a result. In the full data, 18 (0.084%) got an active call. 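Raw counts without plate normalisation, one of two replicates; the ratio scores behind the calls were not deposited.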 A number with no mark means an inactive call. A plus sign joins genes that one reagent is predicted to hit. Not given: the amount of reagent, the time to read-out.

| Target gene | DRSC id | E2F firefly, rep 1 | Renilla normaliser, rep 1 |
| --- | --- | --- | --- |
| CG42335 (GeneID 42558) | DRSC14597 | 1.46e5 | 7512 |
| CG42335 (GeneID 42558) | DRSC15892 | 1.31e5 | 6895 |
| vn (GeneID 38657) | DRSC11408 | 81355 | 3812 |
| CG2839 (GeneID 33244) | DRSC00544 | 1.64e5 | 5853 |
| SPR (GeneID 31463) | DRSC17390 | 76987 | 2330 |
| SPR (GeneID 31463) | DRSC17886 | 1.00e5 | 6872 |
| SPR (GeneID 31463) | DRSC18114 | 1.03e5 | 5166 |
| CG32647 (GeneID 326226) | DRSC19690 | 1.45e5 | 6239 |
| CG32647 (GeneID 326226) | DRSC19878 | 1.09e5 | 7044 |
| CG14852 (GeneID 41765) | DRSC14976 | 1.09e5 | 4712 |
| Msp300 (GeneID 3771968) | DRSC00854 | 1.29e5 | 5468 |
| Msp300 (GeneID 3771968) | DRSC00856 | 1.35e5 | 5531 |
| Msp300 (GeneID 3771968) | DRSC00857 | 1.43e5 | 5487 |
| Msp300 (GeneID 3771968) | DRSC00858 | 1.35e5 | 5275 |
| Msp300 (GeneID 3771968) | DRSC02360 | 1.38e5 | 4485 |
| Msp300 (GeneID 3771968) | DRSC03369 | 81193 | 3563 |
| Msp300 (GeneID 3771968) | DRSC03370 | 1.64e5 | 4934 |
| CG42809 + CG42810 | DRSC02532 | 1.05e5 | 4874 |
| CG42809 + CG42810 | DRSC02533 | 1.02e5 | 4190 |
| retinin (GeneID 53564) | DRSC09940 | 1.56e5 | 6582 |
| CG30486 (GeneID 246645) | DRSC06680 | 1.11e5 | 4481 |
| ph-p (GeneID 31181) | DRSC18820 | 1.31e5 | 6570 |
| Cyp4d21 (GeneID 34036) | DRSC03305 | 73788 | 3447 |
| CG11964 (GeneID 41068) | DRSC14447 | 68875 | 3830 |
| CG7298 (GeneID 40210) | DRSC10802 | 68213 | 3883 |
| twit (GeneID 35353) | DRSC03210 | 71020 | 3110 |
| CG5550 (GeneID 36883) | DRSC06943 | 1.55e5 | 5461 |
| CG4613 (GeneID 39586) | DRSC10435 | 1.60e5 | 6406 |
| CG33689 (GeneID 3771798) | DRSC09424 | 1.37e5 | 3893 |
| Sap130 (GeneID 39455) | DRSC09680 | 1.22e5 | 6894 |
| CG5565 (GeneID 33323) | DRSC00690 | 1.68e5 | 5677 |
| TFAM (GeneID 42433) | DRSC15552 | 60340 | 3238 |
| Sec24CD (GeneID 33409) | DRSC00300 | 81779 | 3950 |
| Bug22 (GeneID 34429) | DRSC02842 | 1.52e5 | 5370 |
| side-II (GeneID 3346206) | DRSC01427 | 1.40e5 | 7638 |
| side-II (GeneID 3346206) | DRSC01429 | 1.33e5 | 6727 |
| side-II (GeneID 3346206) | DRSC01913 | 1.07e5 | 4083 |
| side-II (GeneID 3346206) | DRSC01932 | 94273 | 4055 |
| side-II (GeneID 3346206) | DRSC02480 | 96757 | 4117 |
| CG6409 (GeneID 39220) | DRSC10630 | 81056 | 3290 |
| Cen (GeneID 35330) | DRSC02704 | 78513 | 3120 |
| CG13587 (GeneID 37930) | DRSC04223 | 1.03e5 | 4453 |
| CG15721 (GeneID 32247) | DRSC19688 | 56207 | 4101 |
| CG18731 (GeneID 59246) | DRSC15377 | 1.40e5 | 6891 |
| CG34347 (GeneID 5740668) | DRSC14047 | 85755 | 2554 |
| CG34347 (GeneID 5740668) | DRSC14305 | 1.03e5 | 5079 |
| CG34347 (GeneID 5740668) | DRSC15104 | 81876 | 4040 |
| CG34347 (GeneID 5740668) | DRSC15105 | 36020 | 2741 |
| GrlHz (GeneID 37648) | DRSC04424 | 80421 | 3541 |
| IntS3 (GeneID 3355010) | DRSC21215 | 1.46e5 | 6643 |
| CG5708 (GeneID 34361) | DRSC02881 | 1.45e5 | 4835 |
| Obp19b (GeneID 33038) | DRSC20536 | 1.43e5 | 6356 |
| CG33337 (GeneID 2768678) | DRSC13632 | 81230 | 2657 |
| CG11843 (GeneID 43432) | DRSC14401 | 1.12e5 | 6676 |
| Raf (GeneID 31221) | DRSC18821 | 1.06e5 | 4985 |
| ND-39 (GeneID 40272) | DRSC11791 | 83468 | 3619 |
| Hrb87F (GeneID 48535) | DRSC16708 | 66258 | 3335 |
| CG31848 (GeneID 318980) | DRSC01309 | 97531 | 6240 |
| fs(1)K10 (GeneID 47781) | DRSC18775 | 1882 | 944 |
| yellow-b (GeneID 35005) | DRSC03639 | 83791 | 4046 |
| Nup160 + RfC38 | DRSC01997 | 71832 | 3495 |
| CG33296 (GeneID 2768941) | DRSC00998 | 1.44e5 | 6581 |
| CG15200 (GeneID 32060) | DRSC19647 | 1.29e5 | 6973 |
| bs (GeneID 37890) | DRSC04676 | 1.10e5 | 4255 |
| Brd7-9 (GeneID 34062) | DRSC03017 | 1.05e5 | 4010 |
| CG3513 (GeneID 33590) | DRSC00608 | 1.33e5 | 5339 |
| CG10073 (GeneID 37225) | DRSC05961 | 1.34e5 | 4310 |
| CG14229 (GeneID 32980) | DRSC19585 | 1.05e5 | 5597 |
| CG10459 (GeneID 36000) | DRSC05991 | 1.47e5 | 5351 |
| CG16852 (GeneID 34769) | DRSC01876 | 1.09e5 | 3970 |
| tai (GeneID 34242) | DRSC02207 | 1.32e5 | 4170 |
| tai (GeneID 34242) | DRSC02673 | 1.67e5 | 5421 |
| CG42288 (GeneID 36559) | DRSC06381 | 1.01e5 | 4185 |
| DnaJ-1 (GeneID 38643) | DRSC11145 | 69540 | 3614 |
| CG9825 (GeneID 37624) | DRSC04569 | 1.08e5 | 4846 |
| Vha100-3 (GeneID 246543) | DRSC05760 | 1.64e5 | 7114 |
| Mf (GeneID 41824) | DRSC16120 | 1.08e5 | 5975 |
| CG13920 (GeneID 38203) | DRSC08389 | 75722 | 3609 |
| fws (GeneID 35054) | DRSC02969 | 82981 | 3653 |
| CG12531 (GeneID 32986) | DRSC19466 | 1.38e5 | 6732 |
| Dbp45A (GeneID 35917) | DRSC07395 | 2545 | 192 |
| CG2006 (GeneID 43472) | DRSC15412 | 1861 | 920 |
| Ssl1 (GeneID 40509) | DRSC11634 | 77707 | 3235 |
| LManII (GeneID 34437) | DRSC01986 | 73879 | 3102 |

Ordered by “Renilla normaliser, rep 1” (ascending): some entries from above.
| Target gene | DRSC id | E2F firefly, rep 1 | Renilla normaliser, rep 1 |
| --- | --- | --- | --- |
| CG14852 (GeneID 41765) | DRSC14976 | 1.09e5 | 4712 |
| SPR (GeneID 31463) | DRSC18114 | 1.03e5 | 5166 |
| Msp300 (GeneID 3771968) | DRSC00854 | 1.29e5 | 5468 |
| Msp300 (GeneID 3771968) | DRSC00857 | 1.43e5 | 5487 |
| Msp300 (GeneID 3771968) | DRSC00856 | 1.35e5 | 5531 |
| CG32647 (GeneID 326226) | DRSC19690 | 1.45e5 | 6239 |
| CG32647 (GeneID 326226) | DRSC19878 | 1.09e5 | 7044 |
